Reference: PubChem BioAssay AID1671190 (National Center for Advancing Translational Sciences (NCATS), 2021)
Where “and” joins values, the source holds several entries; their conditions need not be identical. Identical values can stand only once. Hit rate of the full screen: of about 580,000 compounds, about 6,100 (1.1%) were called active. Inconclusive means that the source gave no clear call. Such entries were picked first, then a sample of the others. Calls come from the whole dose curve; as a rule, active = well fitted inhibition curve with a large enough effect; inconclusive = small, poorly fitted or top-dose-only effect, or another doubt; inactive = no such curve, though single readings can be large or run the other way. A potency beside an inconclusive call is a rough fit, not a confirmed value.

The chains behind the UniProt entries cited, without tags or fusion partners. Where a name states a change or a piece, a line headed by the entry shows the natural chain unless it says otherwise.
UniProt P18054: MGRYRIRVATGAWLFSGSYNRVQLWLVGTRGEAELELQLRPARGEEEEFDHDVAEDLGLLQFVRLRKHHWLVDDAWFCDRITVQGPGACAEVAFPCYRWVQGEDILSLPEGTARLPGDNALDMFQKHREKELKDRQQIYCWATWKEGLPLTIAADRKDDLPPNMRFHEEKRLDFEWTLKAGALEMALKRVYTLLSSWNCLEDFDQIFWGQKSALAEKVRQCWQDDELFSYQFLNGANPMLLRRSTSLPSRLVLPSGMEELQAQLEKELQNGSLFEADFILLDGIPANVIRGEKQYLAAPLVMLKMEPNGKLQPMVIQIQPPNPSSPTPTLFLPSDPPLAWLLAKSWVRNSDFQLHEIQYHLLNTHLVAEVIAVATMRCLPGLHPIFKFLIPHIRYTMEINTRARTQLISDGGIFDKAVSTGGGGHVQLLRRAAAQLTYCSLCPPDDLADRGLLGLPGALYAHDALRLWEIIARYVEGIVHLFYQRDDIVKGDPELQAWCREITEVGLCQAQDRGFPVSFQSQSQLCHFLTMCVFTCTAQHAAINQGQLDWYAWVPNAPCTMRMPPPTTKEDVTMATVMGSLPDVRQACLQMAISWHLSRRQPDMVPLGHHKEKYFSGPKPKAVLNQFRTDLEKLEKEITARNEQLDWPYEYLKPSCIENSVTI

Target: Polyunsaturated fatty acid lipoxygenase ALOX12 (Homo sapiens) (UniProt P18054)
Assay: Primary qHTS assay for inhibitors of human arachidonate 12S-lipoxygenase (ALOX12): Round 2
Conditions: purified 12hLO, xylenol orange hydroperoxide absorbance; activity change, negative = inhibition: at 108 µM (top of the series) unless noted
Summary of the method: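 Hydroperoxide product was detected by ferrous iron/xylenol orange as the 573 to 405 nm absorbance ratio. Arachidonic acid at 40 uM (final) was turned over for 30 min at room temperature by 150 nM human 12hLO, pH 7.0 Hepes buffer, after 15 min compound preincubation.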
% is set by controls: 0 for no effect and ±100 for the full control effect; potency is the fitted concentration of half-maximal effect.

Q: For `C/C=C(/C)C(=O)Nc1cccc(C2=NOC3(C2)C[C@@H](C(N)=O)N(C(=O)CC(c2ccccc2)c2ccccc2)C3)c1` (some centres undefined), which “activity change, negative = inhibition” value is on record?
A: inactive: -17.8%

Q: For `COc1ccc(NC(=O)c2cccc3c(-c4ccc(OC)cc4C)coc23)cc1`, which “activity change, negative = inhibition” value is on record?
A: inactive: -17%

Q: With `COc1ccc(/C=C2\CC/C(=C\c3ccc(OC)cc3OC)C2=O)c(OC)c1` as the compound, how does the “activity change, negative = inhibition” value read?
A: inactive: -21.8%

Q: Which “activity change, negative = inhibition” value does the source give for `Fc1ccc(CNCc2cccc(OCc3ccccc3)c2)cc1` here?
A: inactive: -3.66%

Q: For `CC(C)Cn1c(SCC(=O)NCCCN2CCCC2=O)nc2ccccc21`, which Potency is on record?
A: inconclusive: 7.08 µM [inhibitor, full curve]

Q: With `CC1=C[C@@H](CNCc2ccccc2F)[C@H](C(C)C)C[C@H]1Cc1nc2c(C)cccc2[nH]1` as the compound, how does the Potency read?
A: inconclusive: 112 µM [inhibitor, partial curve]

Q: How did the Potency turn out when `Cc1cc(C)c2nc(-c3ccccc3)c(C)c(C(=O)O)c2c1` was run?
A: inconclusive: 7.94 µM [inhibitor, full curve, poor fit]

Q: For `CC(C)COCc1ccc(O)c2ncccc12`, which Potency is on record?
A: inconclusive: 7.08 µM [inhibitor, full curve]

Q: How did the “activity change, negative = inhibition” value turn out when `CCCn1c(NC(=O)c2ccc(C)cc2)nc2ccccc21` was run?
A: inactive: 105%

Q: For `O=C(CSc1ncn[nH]1)OCN1C(=O)c2ccccc2C1=O`, which Potency is on record?
A: inconclusive: 50.1 µM [inhibitor, partial curve]

Q: With `c1ccc(-c2csc(Nc3ccc4c(c3)OCCO4)n2)cc1` as the compound, how does the Potency read?
A: inconclusive: 17.8 µM [inhibitor, partial curve, poor fit]

Q: How did the “activity change, negative = inhibition” value turn out when `O=C(CN1CCCC1c1ccc2c(c1)OCCCO2)Nc1ccccc1Cl` (centres undefined) was run?
A: inactive: 6.87%

Q: With `COc1cc(OC)cc(C(=O)NNC(=S)NC(=O)c2cccnc2)c1` as the compound, how does the Potency read?
A: inconclusive: 44.7 µM [inhibitor, partial curve, poor fit]

Q: With `Cc1ccc(C(=O)NCC(=O)Nc2ccc(Cl)cc2)s1` as the compound, how does the Potency read?
A: inconclusive: 50.1 µM [inhibitor, partial curve, poor fit]

Q: With `O=C(CCc1nc2ccccc2c(=O)[nH]1)Nc1cccc(S(=O)(=O)N2CCCCC2)c1` as the compound, how does the Potency read?
A: inconclusive: 126 µM [inhibitor, partial curve, poor fit]

Q: `Cc1ccc2onc(CNC(=O)N3CCN(c4cccc(C(F)(F)F)c4)CC3)c2c1` was tested. Which Potency did it give?
A: inconclusive: 89.1 µM [inhibitor, single point]

Q: `COc1ccccc1N1CC(C(=O)Nc2nnc(SCC(=O)NC(C)C)s2)CC1=O` (centres undefined) was tested. Which Potency did it give?
A: inconclusive: 20 µM [inhibitor, partial curve, poor fit]

Q: With `COc1ccccc1NC(=O)C1CCCN(S(=O)(=O)c2ccc3[nH]c(=O)ccc3c2)C1` (centres undefined) as the compound, how does the “activity change, negative = inhibition” value read?
A: inactive: -6.18%

Q: For `COc1cccc(C(=O)N[C@@H](Cc2cccnc2)C(=O)N2CCC[C@H]2C(=O)NC2CCCC2)c1`, which Potency is on record?
A: inconclusive: 20 µM [inhibitor, full curve]

Q: With `CCn1cc(S(=O)(=O)N2CCOc3ccc(CN4CCCCCC4)cc3C2)cn1` as the compound, how does the “activity change, negative = inhibition” value read?
A: inactive: 29.9%

Q: `C[n+]1cccc(C(=O)NCC2CCCO2)c1` (centres undefined) was tested. Which Potency did it give?
A: active: 15.8 µM

Q: For `O=C1C(=O)N(CCN2CCOCC2)C(c2cccc(Cl)c2)/C1=C(\O)c1ccc2c(c1)OCCO2` (centres undefined), which Potency is on record?
A: inconclusive: 50.1 µM [inhibitor, partial curve, poor fit]

Q: For `CCOc1ccc(S(=O)(=O)N2CCN(C(=O)CN3C(=O)NC4(CCCC4)C3=O)CC2)cc1`, which Potency is on record?
A: inconclusive: 89.1 µM [inhibitor, partial curve, poor fit]

Q: How did the “activity change, negative = inhibition” value turn out when `CCC(c1cccs1)N1C(=O)[C@H]2CN(S(=O)(=O)c3ccc(Cl)cc3)C[C@H]2C1=O` (some centres undefined) was run?
A: inactive: 22.9%

Q: Which Potency does the source give for `Cc1ccc(Cc2c(-c3cccc(Cl)c3)nc3ccc(C)cn23)cc1` here?
A: inconclusive: 89.1 µM [inhibitor, single point]

Q: `COC(=O)c1ccc2nc(-c3ccco3)c(Cc3ccc(OC)cc3C)n2c1` was tested. Which Potency did it give?
A: inconclusive: 44.7 µM [inhibitor, partial curve, poor fit]

Q: How did the “activity change, negative = inhibition” value turn out when `Cc1ccc(-c2cn3cccnc3n2)cc1` was run?
A: inactive: 2.07%

Q: `O=C1Nc2ccccc2CC12CCN(Cc1ccc(Cl)cc1)CC2` was tested. Which Potency did it give?
A: inconclusive: 20 µM [inhibitor, full curve, poor fit]

Q: How did the “activity change, negative = inhibition” value turn out when `COc1ccccc1C(=O)COC(=O)CNS(=O)(=O)c1ccc(C)c(C)c1` was run?
A: inactive: -10.2%

Q: For `CCOc1ccc(/C=N/N(C)c2ccccc2)cc1OC`, which Potency is on record?
A: inconclusive: 56.2 µM [inhibitor, partial curve, poor fit]

Q: Which “activity change, negative = inhibition” value does the source give for `COc1ccc(N2C(=O)c3cc4ccccc4cc3C2=O)cc1` here?
A: inactive: -0.0677%

Q: How did the “activity change, negative = inhibition” value turn out when `O=C(CSc1nc2ccccc2c(=O)[nH]1)Nc1cccc(Br)c1` was run?
A: inactive: -9.48%

Q: For `CCc1cc(C(=O)NNC(=S)NC(=O)c2ccccc2)cs1`, which Potency is on record?
A: active: 39.8 µM

Q: `CN1CCC2(C1)CN(CC1CCOCC1)c1ccc(C(=O)NCc3ccccc3)cc12` (centres undefined) was tested. Which Potency did it give?
A: inconclusive: 100 µM [inhibitor, partial curve]

Q: `CCc1cn(C[C@@H](C(=O)O)N(CC)CC)c(=O)[nH]c1=O` was tested. Which Potency did it give?
A: inconclusive: 10 µM [inhibitor, full curve, poor fit]

Q: How did the Potency turn out when `O=C1C=CC(=Nc2ccc3c(c2)C(=O)c2ccccc2-3)O1` was run?
A: inconclusive: 44.7 µM [inhibitor, partial curve, poor fit]

Q: Which “activity change, negative = inhibition” value does the source give for `Cc1cc(C)cc(OCC(=O)Nc2cccc(-c3nnc(-c4ccco4)o3)c2)c1` here?
A: inactive: 7.59%

Q: With `CCOC(=O)C1=CCC(c2cc3ccc(OC)cc3n2C(=O)OC(C)(C)C)NC1` (centres undefined) as the compound, how does the Potency read?
A: inconclusive: 44.7 µM [inhibitor, partial curve, poor fit]

Q: How did the Potency turn out when `Cc1cc(C(=O)OCC(=O)NC(C)C)c2ccccc2n1` was run?
A: inactive

Q: Which “activity change, negative = inhibition” value does the source give for `O=C(NNc1c2ccccc2nc2ccccc12)c1cccc(O)c1` here?
A: inactive: -19.1%

Q: `COC(=O)c1sc(N2C(=O)C(O)=C(C(=O)c3ccc(C)o3)C2c2cc(OC)ccc2OC)nc1C` (centres undefined) was tested. Which Potency did it give?
A: inconclusive: 50.1 µM [inhibitor, partial curve, poor fit]

Q: `O=C(O)c1cccc(N/N=C/c2cccc3ccccc23)c1` was tested. Which Potency did it give?
A: inconclusive: 35.5 µM [inhibitor, partial curve, poor fit]

Q: Which Potency does the source give for `CC(=C/C(=O)O)/C=C/c1ccco1` here?
A: inactive and inconclusive: 17.8 µM [inhibitor, full curve, poor fit]

Q: How did the Potency turn out when `Cc1c(C)n(C)c2ccc(C(=O)NCCc3ccco3)cc12` was run?
A: inconclusive: 56.2 µM [inhibitor, partial curve, poor fit]
